Measurements taken from the supplement of paper PMC12067093, “Discovery and optimisation of a covalent ligand for TRIM25 and its application to targeted protein ubiquitination” (Chemical Science, 2025).
This is one part of the list.

Sequences of proteins named here, by UniProt entry; tags and fusion partners are left off. A change or cut given only in a name is not applied to a line headed by its entry.
UniProt Q9BY77: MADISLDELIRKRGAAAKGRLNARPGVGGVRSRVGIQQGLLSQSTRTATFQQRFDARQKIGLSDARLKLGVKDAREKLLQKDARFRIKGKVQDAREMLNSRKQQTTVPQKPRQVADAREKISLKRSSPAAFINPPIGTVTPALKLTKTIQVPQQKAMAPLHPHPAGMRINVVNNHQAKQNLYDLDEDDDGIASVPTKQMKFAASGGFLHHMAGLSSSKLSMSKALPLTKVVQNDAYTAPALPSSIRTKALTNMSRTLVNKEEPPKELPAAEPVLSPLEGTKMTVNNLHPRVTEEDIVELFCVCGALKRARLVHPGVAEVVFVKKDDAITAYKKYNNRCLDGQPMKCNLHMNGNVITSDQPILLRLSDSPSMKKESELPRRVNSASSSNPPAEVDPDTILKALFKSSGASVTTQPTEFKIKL
UniProt Q9NW08: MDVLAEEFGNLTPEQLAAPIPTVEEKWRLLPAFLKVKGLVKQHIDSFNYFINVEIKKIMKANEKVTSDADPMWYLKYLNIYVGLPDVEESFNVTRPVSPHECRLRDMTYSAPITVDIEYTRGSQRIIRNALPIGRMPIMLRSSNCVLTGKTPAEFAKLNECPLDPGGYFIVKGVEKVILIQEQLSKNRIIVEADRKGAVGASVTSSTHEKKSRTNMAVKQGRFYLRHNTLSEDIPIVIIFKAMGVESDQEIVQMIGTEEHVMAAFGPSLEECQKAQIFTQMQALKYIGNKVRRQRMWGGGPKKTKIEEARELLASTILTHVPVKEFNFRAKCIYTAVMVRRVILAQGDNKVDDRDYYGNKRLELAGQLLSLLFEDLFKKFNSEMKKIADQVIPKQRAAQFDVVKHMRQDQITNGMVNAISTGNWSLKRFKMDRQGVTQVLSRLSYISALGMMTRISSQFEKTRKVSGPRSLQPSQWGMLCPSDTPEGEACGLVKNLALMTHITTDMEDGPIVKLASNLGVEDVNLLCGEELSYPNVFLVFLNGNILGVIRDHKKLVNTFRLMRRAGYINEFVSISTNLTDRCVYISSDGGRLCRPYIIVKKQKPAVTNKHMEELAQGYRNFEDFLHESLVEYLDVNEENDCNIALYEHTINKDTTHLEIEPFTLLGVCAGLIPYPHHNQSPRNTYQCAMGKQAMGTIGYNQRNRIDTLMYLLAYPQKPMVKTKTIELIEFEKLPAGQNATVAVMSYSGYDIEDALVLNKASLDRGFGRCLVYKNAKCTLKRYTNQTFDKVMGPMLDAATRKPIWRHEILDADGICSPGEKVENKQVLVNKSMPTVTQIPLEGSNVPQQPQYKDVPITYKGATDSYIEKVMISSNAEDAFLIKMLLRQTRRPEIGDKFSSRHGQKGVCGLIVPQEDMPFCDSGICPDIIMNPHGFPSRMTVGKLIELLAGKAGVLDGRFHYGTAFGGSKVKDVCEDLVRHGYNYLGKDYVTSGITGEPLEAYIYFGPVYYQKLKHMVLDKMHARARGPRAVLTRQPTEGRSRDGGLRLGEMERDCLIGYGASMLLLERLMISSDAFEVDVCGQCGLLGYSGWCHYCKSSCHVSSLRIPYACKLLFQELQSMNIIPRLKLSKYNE
UniProt Q15181: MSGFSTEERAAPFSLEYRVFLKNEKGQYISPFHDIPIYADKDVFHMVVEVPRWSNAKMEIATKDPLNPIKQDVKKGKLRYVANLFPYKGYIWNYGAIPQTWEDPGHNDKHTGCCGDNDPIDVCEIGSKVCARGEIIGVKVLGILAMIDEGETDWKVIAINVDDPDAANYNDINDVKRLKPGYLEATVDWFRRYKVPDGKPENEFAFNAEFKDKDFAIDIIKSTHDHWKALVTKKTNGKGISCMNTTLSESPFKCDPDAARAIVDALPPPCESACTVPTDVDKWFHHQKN
UniProt Q07864, whole entry, looked up: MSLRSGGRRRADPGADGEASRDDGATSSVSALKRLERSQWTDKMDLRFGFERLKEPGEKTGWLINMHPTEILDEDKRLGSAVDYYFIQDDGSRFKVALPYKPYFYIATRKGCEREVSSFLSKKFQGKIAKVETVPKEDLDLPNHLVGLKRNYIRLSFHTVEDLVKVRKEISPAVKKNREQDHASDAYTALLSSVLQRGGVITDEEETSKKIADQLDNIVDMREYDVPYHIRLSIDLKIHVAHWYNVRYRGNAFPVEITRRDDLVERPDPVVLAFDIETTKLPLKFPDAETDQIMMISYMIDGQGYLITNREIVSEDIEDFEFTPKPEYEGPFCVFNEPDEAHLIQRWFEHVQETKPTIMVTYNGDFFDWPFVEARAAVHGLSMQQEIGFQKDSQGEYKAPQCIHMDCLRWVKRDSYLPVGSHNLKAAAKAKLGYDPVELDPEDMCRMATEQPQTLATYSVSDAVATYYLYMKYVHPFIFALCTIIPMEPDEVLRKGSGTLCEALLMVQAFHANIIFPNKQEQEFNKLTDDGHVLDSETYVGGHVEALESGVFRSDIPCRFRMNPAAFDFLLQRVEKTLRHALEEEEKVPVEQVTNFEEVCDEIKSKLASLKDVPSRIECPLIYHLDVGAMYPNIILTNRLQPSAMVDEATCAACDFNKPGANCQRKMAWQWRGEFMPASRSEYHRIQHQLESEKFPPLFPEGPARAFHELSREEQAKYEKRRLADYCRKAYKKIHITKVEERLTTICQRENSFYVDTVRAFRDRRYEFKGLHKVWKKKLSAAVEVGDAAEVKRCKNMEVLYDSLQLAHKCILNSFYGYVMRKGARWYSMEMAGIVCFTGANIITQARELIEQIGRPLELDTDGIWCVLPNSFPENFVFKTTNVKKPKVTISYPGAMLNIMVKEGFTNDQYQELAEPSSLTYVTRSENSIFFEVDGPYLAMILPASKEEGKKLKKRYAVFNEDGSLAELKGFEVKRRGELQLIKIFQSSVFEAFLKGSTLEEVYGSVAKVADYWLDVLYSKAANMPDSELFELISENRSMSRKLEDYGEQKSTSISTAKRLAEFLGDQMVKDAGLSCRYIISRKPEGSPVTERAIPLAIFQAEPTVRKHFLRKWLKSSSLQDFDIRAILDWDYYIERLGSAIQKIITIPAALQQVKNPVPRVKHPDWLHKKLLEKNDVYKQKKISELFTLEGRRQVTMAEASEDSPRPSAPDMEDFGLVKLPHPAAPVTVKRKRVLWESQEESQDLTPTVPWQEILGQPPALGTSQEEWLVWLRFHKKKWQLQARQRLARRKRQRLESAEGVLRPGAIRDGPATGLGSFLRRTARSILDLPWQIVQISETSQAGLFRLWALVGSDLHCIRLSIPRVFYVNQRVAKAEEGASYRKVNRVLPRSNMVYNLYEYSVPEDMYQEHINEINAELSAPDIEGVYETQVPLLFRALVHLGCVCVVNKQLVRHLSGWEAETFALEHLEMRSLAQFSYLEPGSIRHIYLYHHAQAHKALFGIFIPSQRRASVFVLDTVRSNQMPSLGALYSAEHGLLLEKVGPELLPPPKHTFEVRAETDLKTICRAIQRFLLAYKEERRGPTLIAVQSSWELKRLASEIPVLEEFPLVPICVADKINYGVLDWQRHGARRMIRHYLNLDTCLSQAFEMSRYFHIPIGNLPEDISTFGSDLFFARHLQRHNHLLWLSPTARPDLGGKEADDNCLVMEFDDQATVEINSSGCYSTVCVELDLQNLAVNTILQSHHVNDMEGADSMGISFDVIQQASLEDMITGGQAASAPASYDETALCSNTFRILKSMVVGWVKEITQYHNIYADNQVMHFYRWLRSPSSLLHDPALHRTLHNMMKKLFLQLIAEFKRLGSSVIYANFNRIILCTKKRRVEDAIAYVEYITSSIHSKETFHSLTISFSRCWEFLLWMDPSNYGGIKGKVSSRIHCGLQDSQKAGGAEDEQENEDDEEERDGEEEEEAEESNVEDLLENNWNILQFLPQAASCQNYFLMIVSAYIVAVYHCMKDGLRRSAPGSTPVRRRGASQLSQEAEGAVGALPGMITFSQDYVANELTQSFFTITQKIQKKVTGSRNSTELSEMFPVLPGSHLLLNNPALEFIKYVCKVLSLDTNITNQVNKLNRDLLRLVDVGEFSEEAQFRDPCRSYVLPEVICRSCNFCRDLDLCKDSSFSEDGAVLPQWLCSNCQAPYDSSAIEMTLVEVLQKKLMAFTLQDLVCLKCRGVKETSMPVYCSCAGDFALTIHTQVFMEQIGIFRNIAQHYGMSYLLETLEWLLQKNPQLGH
UniProt Q8WZA1: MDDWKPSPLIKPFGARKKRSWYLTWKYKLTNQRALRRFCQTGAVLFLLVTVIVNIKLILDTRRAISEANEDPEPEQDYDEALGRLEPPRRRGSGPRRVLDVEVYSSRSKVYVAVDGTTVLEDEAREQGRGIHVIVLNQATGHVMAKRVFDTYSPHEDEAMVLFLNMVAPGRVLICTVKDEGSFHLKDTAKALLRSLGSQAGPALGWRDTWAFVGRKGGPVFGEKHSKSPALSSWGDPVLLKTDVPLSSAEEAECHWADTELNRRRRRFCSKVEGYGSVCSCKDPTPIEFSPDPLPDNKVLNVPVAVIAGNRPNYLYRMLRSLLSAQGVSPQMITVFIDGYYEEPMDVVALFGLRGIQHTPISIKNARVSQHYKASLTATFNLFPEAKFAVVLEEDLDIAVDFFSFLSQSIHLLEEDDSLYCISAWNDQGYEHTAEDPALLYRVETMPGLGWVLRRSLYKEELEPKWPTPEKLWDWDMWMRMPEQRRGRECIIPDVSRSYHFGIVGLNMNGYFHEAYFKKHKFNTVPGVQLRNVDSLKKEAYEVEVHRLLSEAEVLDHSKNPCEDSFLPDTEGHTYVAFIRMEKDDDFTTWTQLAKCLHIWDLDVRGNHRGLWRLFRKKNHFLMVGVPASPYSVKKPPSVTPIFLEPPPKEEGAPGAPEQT
UniProt P09884: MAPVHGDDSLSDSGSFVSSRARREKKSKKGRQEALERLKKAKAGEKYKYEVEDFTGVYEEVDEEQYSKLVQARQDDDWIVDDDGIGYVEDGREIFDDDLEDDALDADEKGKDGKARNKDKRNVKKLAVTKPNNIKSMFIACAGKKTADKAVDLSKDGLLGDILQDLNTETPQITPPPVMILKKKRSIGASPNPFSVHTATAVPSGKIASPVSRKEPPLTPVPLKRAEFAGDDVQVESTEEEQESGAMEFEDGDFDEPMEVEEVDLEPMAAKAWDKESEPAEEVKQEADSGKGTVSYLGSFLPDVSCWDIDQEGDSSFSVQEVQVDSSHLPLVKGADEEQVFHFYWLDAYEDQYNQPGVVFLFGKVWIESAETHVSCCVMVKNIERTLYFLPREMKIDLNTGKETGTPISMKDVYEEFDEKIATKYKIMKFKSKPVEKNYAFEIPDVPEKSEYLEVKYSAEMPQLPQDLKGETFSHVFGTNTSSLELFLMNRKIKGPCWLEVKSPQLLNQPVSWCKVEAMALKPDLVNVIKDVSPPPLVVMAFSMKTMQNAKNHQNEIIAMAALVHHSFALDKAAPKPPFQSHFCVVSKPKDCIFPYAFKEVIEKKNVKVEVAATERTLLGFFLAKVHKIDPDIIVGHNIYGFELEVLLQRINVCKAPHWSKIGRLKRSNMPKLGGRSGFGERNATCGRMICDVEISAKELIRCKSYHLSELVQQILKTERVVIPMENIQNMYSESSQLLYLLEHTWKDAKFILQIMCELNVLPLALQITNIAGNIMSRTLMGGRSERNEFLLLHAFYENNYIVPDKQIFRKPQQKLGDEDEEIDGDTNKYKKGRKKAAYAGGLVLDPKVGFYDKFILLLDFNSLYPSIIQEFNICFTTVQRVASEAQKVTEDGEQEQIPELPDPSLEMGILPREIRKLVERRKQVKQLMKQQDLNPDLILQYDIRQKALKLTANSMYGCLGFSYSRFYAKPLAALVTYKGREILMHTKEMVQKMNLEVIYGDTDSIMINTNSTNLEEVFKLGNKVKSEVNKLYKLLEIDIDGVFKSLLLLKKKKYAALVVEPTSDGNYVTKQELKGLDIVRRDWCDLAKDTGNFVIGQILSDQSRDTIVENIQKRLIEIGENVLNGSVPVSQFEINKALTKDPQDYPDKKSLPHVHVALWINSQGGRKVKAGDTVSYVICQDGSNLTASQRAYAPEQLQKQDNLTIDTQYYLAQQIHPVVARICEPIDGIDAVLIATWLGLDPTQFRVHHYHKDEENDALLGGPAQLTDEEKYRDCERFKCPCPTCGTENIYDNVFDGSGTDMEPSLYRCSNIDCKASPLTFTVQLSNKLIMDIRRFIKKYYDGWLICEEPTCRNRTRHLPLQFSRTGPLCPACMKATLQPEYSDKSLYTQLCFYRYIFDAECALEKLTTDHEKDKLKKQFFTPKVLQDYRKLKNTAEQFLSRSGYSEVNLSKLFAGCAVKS
UniProt P00491: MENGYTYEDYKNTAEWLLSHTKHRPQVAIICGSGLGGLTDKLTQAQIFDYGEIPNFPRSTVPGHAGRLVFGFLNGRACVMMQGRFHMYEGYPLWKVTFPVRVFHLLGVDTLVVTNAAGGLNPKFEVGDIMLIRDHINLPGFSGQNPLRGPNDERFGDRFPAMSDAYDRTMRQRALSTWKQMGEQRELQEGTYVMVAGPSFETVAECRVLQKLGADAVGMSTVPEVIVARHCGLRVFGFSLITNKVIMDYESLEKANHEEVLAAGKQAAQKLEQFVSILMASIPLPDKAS

These targets were tested with CC1Cc2ccccc2N1C(=O)C1CCCN(C1)C(=O)CCl (mixture of isomers) [TRIM25 ligand 11 (diastereomer mixture)] (assay: probe-labelled cysteine peptide fold change vs DMSO (competition) (log2 fold change); higher = less target engagement (more negative = stronger competition)). Conditions: 50 µM; THP-1; incubation time: 4 h.
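Further: competitive chemoproteomic profiling in live THP-1 cells with an iodoacetamide desthiobiotin (IA-DTB) probe, comparing probe-labelled peptide intensities in compound-treated cells against DMSO-treated controls.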

Target | probe-labelled cysteine peptide fold change
POLR1D_P0DPB6_39_HCVTFVLHEEDHTLGNSLR (UniProt P0DPB6) | 0.167
POLDIP3_Q9BY77_301+303_VTEEDIVELFCVCGALK (UniProt Q9BY77) | 0.0944
POLG_P54098_647_LPTGTTLESAGVVCPYR (UniProt P54098) | -0.264
POR_P16435_363_HPFPCPTSYR (UniProt P16435) | 0.0163
POLR3B_Q9NW08_145_SSNCVLTGK (UniProt Q9NW08) | -0.0284
PPA1_Q15181_123_HTGCCGDNDPIDVCEIGSK (UniProt Q15181) | -0.178
POLE_Q07864_2221_LMAFTLQDLVCLK (UniProt Q07864) | -0.0428
POMGNT1_Q8WZA1_254_TDVPLSSAEEAECHWADTELNRR (UniProt Q8WZA1) | 0.0735
POLR2B_P30876_892_RDCSTFLR (UniProt P30876) | -0.000729
POLA1_P09884_584_AAPKPPFQSHFCVVSKPK (UniProt P09884) | -0.194
PPFIBP1_Q86W92_140_IRDLEFCLEEHR (UniProt Q86W92) | 0.188
POLRMT_O00411_925_ASDPAAYVSHLPVHQDGSCNGLQHYAALGR (UniProt O00411) | -0.07
POLR1A_O95602_746_EGELLCGVLDK (UniProt O95602) | 0.0549
POR_P16435_434_HILAILQDCPSLRPPIDHLCELLPR (UniProt P16435) | -0.181
POLRMT_O00411_705_TVEGATQHQELLETCPPTALHGALDALTQLGNCAWR (UniProt O00411) | -0.00621
POLR3B_Q9NW08_1054_LGEMERDCLIGYGASMLLLER (UniProt Q9NW08) | 0.116
POLE_Q07864_600_HALEEEEKVPVEQVTNFEEVCDEIK (UniProt Q07864) | -0.286
PPFIBP1_Q86W92_140_DLEFCLEEHREK (UniProt Q86W92) | -0.0927

In another format: results already given.
Target	probe-labelled cysteine peptide fold change
POLR2B_P30876_892_RDCSTFLR (UniProt P30876)	-0.000729
POLA1_P09884_584_AAPKPPFQSHFCVVSKPK (UniProt P09884)	-0.194

More entries.

Target | probe-labelled cysteine peptide fold change
POTEF_A5A3E0_917_LCYVALDFEQEMATVASSSSLEK (UniProt A5A3E0) | -0.0879
PPA1_Q15181_270+274_AIVDALPPPCESACTVPTDVDK (UniProt Q15181) | -0.283
PPIB_P23284_202_DVIIADCGK (UniProt P23284) | -0.133
POLR2A_P24928_451_HMCDGDIVIFNR (UniProt P24928) | 0.0058
POLR2B_P30876_622_ICRPLLIVEK (UniProt P30876) | -0.0492
PPA1_Q15181_114_HTGCCGDNDPIDVCEIGSK (UniProt Q15181) | 0.128
POLRMT_O00411_178_QMAGCLEDCTR (UniProt O00411) | -0.336
POLD3_Q15054_129_SNLQNCSK (UniProt Q15054) | -0.107
PPCDC_Q96CD2_7_ASCPAAAPLMER (UniProt Q96CD2) | -0.188
PNP_P00491_31_HRPQVAIICGSGLGGLTDK (UniProt P00491) | 0.0271
POLR2D_O15514_99+104_FELACLANLCPETAEESK (UniProt O15514) | -0.241
POMP_Q9Y244_37_KGFSCVK (UniProt Q9Y244) | -0.466
POMGNT1_Q8WZA1_562_NPCEDSFLPDTEGHTYVAFIR (UniProt Q8WZA1) | 0.00763
POLD1_P28340_319_VLSFDIECAGRK (UniProt P28340) | -0.159
POLDIP3_Q9BY77_346_CNLHMNGNVITSDQPILLR (UniProt Q9BY77) | -0.121
POTEJ_P0CG39_880_LCYVALDFEQEMAMVASSSSLEK (UniProt P0CG39) | 0.37
PPID_Q08752_282_LQPIALSCVLNIGACK (UniProt Q08752) | 0.184
POP1_Q99575_252_CLLQDLSYYCCLELK (UniProt Q99575) | 0.105
